Results as given in article PMC7862700.
The entries are a selection whose mix differs from that of the whole data set. At the low end of the ranking the order means little.

Target: SPI1 (UniProt P17947)
Assay: DAPPL (digital affinity profiling via proximity ligation, sequencing)
Details: 10 mM Tris-HCl pH 7.5, 50 mM NaCl, 1 mM DTT, 4% glycerol, room temperature, 30 min; GST-TFs on glutathione beads, 16-mer random dsDNA library, 0.1% …; high values mean tight binding; double strand, one strand shown; scale: fold enrichment (6-mer frequency, TF over GST control)

| Sequence | binding signal |
| --- | --- |
| AAGCTA | 1.04 |
| ACGATT | 1.31 |
| AGATAT | 0.972 |
| CAACTG | 1.05 |
| AAGATC | 1.04 |
| GATGCA | 1.06 |
| CAAAGT | 0.934 |
| CATTTG | 1.29 |
| GTCTAA | 1.08 |
| ACAACA | 1.18 |
| TCCGGG | 1.4 |
| ACTGGG | 0.879 |
| AAGCAA | 0.985 |
| GGTAAT | 1.04 |
| GTTTAG | 0.847 |
| AGTGCC | 1.32 |
| ACGCGA | 0.964 |
| GATTTA | 0.962 |
| AACCAC | 1.12 |

Taken from above:
Value for GATGCA under binding signal: 1.06
Value for GTCTAA under binding signal: 1.08

(further entries)

| Sequence | binding signal |
| --- | --- |
| GGTTCT | 0.93 |
| TACGTC | 1.12 |
| TGGTCG | 0.996 |
| GGATAA | 0.757 |
| CCACAC | 0.988 |
| ACCGTT | 0.891 |
| AACAAG | 1.04 |
| TTCTAG | 1.2 |
| TACCTG | 0.969 |
| GAAGAT | 0.833 |
| CGAACG | 0.891 |
| GACGTT | 0.968 |
| CGCTTA | 1.24 |
| TAGATA | 0.977 |
| CGTTGC | 0.997 |
| AAACCT | 1.18 |
| GCGACC | 1.07 |
| CGTTGG | 0.944 |
| GCGCGT | 0.847 |
